Experimental data reported in PubChem BioAssay AID588590 (National Center for Advancing Translational Sciences (NCATS), 2011).
Where “and” joins values, the source holds several entries; their conditions need not be identical. Equal values may be shown once. Out of some 390,000 compounds screened, about 4,000 (1%) were called active. Inconclusive means that the source gave no clear call. Such entries were picked first, then a sample of the others. The call rests on the fitted dose curve; in most records, active means well fitted inhibition curve with a large enough effect; inconclusive means small, poorly fitted or top-dose-only effect, or another doubt; inactive means no such curve, though single readings can be large or run the other way. Potencies of inconclusive entries are doubtful fits and often do not repeat. Where a structure was tested more than once in an assay, its records may differ in their call.

Chains of the proteins cited; added tags and fusions are not shown. Lines headed by an entry give the natural chain unless they say otherwise; changes in a name come on top.
UniProt Q9UNA4: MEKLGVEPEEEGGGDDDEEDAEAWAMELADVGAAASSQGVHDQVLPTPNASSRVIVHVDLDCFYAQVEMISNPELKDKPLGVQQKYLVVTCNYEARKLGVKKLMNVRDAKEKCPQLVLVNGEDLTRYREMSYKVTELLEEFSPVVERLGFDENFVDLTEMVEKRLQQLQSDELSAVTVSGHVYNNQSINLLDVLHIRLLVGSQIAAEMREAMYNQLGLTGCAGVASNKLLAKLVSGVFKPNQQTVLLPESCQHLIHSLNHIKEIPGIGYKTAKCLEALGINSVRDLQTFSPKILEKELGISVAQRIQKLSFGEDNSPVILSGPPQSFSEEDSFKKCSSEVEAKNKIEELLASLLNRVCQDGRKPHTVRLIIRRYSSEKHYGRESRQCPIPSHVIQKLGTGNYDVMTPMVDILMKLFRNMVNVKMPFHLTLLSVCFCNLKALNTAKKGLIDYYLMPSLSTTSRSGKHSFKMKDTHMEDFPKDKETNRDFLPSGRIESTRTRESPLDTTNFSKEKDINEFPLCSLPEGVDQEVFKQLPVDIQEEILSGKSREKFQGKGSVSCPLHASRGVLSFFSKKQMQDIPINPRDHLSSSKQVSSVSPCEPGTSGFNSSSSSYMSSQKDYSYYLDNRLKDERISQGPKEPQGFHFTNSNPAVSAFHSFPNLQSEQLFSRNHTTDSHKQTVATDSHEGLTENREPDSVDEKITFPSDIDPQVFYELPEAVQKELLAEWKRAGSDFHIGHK

Each molecule was assayed against DNA polymerase iota (Homo sapiens) (UniProt Q9UNA4) (assay: qHTS for Inhibitors of Polymerase Iota). Conditions: Pol iota fluorescent replication assay, 10 min; series mostly up to 115 µM; activity, negative = inhibition: at the top concentration.
Summary of the method: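 Pol iota at 10 nM preincubated 15 min with compounds at room temperature; reaction started with fluorescent substrate, 50 nM final. Fluorescence read kinetically at 0 and 10 min; buffer-only wells as negative control.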
Potency means the concentration at half of the fitted maximal effect.

Structure (SMILES)	activity, negative = inhibition	Potency
CCc1nnc(SCc2c(F)cccc2Cl)c2cc3sccc3n12	inactive: 9.66%	–
NC(=O)c1ccccc1OCCOCCOCCOc1ccccc1C(N)=O	–	inconclusive: 100 µM [inhibitor, partial curve]
Cc1ccc(S(=O)(=O)N2[C@@H](c3ccc(Cl)c(Cl)c3)C(C(=O)O)=C[C@H]2CC2CCCC2)cc1	–	inconclusive: 0.708 µM [inhibitor, full curve, poor fit]
CCN1C(=O)c2ccc(-c3nc4ccccc4c(=O)o3)cc2C1=O	–	inconclusive: 79.4 µM [inhibitor, partial curve, poor fit]
Cc1cccc(C2C3=C(Nc4[nH]n(-c5ccccc5)c(=O)c42)c2ccccc2C3=O)c1 (stereo unspecified)	–	inconclusive: 50.1 µM [inhibitor, partial curve, poor fit]
COc1ccc(NS(=O)(=O)c2ccc(NC(=S)NC(=O)/C=C/c3ccccc3)cc2)nn1	–	inconclusive: 25.1 µM [inhibitor, full curve]
COc1ccc(OC)c(C2Nc3c(Cl)ccc(C(=O)O)c3C3C=CCC32)c1 (stereo unspecified)	inactive: 52.7%	–
Cc1cccc(-c2noc(-c3ccccc3NC(=O)C3CC(=O)N(c4ccccc4C)C3)n2)c1 (stereo unspecified)	–	inconclusive: 100 µM [inhibitor, single point]
COc1ccccc1NC(=O)c1cc2ccc3cccnc3c2[nH]1	inactive: 3.11%	–
COc1cccc(CNC(=O)c2ccc3nc(-c4ccc(F)cc4)c(-c4ccc(F)cc4)nc3c2)c1	inactive: -7.32%	–
CC(=O)c1cccc(NC(=O)c2nc3ccccc3n(C)c2=O)c1	inactive: -0.0692%	–
COc1ccc([C@H]2CC(=O)C=C(c3ccc(OC)nc3)C2)cc1	–	inconclusive: 44.7 µM [inhibitor, partial curve, poor fit]
C[C@@H]1O[C@@H](O[C@H]2[C@H](O)[C@@H](O)[C@H](Oc3c(-c4ccc(O)c(O)c4)oc4cc(O)cc(O)c4c3=O)O[C@@H]2CO)[C@H](O)[C@H](O)[C@H]1O	–	inconclusive: 56.2 µM [inhibitor, partial curve, poor fit]
COc1cc(/C=N/NC(=O)COc2ccc(-n3cnnn3)cc2)ccc1OCC(N)=O	–	inconclusive: 28.2 µM [inhibitor, full curve, poor fit]
COc1ccc(CNC(=O)C[C@H]2C[C@H](C(=O)N3CCCCC3)[C@@]3(C)c4[nH]c5cc(-c6ccco6)ccc5c4CCN3C2=O)cc1OC	–	active: 39.8 µM
CCOC(=O)C1CCCN(CC(=O)N2CCCc3c2c(=O)oc2ccc(OCc4ccccc4)cc32)C1 (stereo unspecified)	inactive: 3.59%	–
Brc1ccc(-c2nn3c(Cc4ccccc4)nnc3s2)o1	–	inconclusive: 100 µM [inhibitor, single point]
O=C(Nc1cccc2ccccc12)c1ccc([N+](=O)[O-])o1	–	inconclusive: 39.8 µM [inhibitor, single point]
CCOc1ccc(C2C(C(N)=O)=C(C)Nc3nc(SCc4ccccc4)nn32)cc1 (stereo unspecified)	–	inconclusive: 89.1 µM [inhibitor, partial curve, poor fit]
Cc1ccc(CNC(=O)C2CC(c3ccccc3F)=NO2)cc1 (stereo unspecified)	–	inconclusive: 14.1 µM [inhibitor, single point]
COc1ccc(NC(=O)/C(C#N)=C\c2cc(OC)c(OCc3ccc(C(=O)O)cc3)cc2Br)cc1	–	inconclusive: 15.8 µM [inhibitor, partial curve, poor fit]

Structure (SMILES)	activity, negative = inhibition	Potency
O=C(CCCn1nnnc1CN1CCOCC1)N1CCC(c2ccccc2F)C1 (stereo unspecified)	–	inconclusive: 89.1 µM [inhibitor, partial curve, poor fit]
CCOC(=O)c1cc2c(=O)n3ccccc3nc2n(Cc2ccco2)c1=NC(=O)c1ccccc1Br	–	active: 14.1 µM
O=c1cc(-c2ccccc2)[nH]c2cc(Cl)ccc12	–	inconclusive: 31.6 µM [inhibitor, partial curve]
O=C(COc1ccccc1)Nc1nc2c(s1)CCCC2	–	inconclusive: 44.7 µM [inhibitor, partial curve, poor fit]
O=c1c(Oc2ccccc2F)coc2cc(OCc3cnn(-c4ccccc4)c3)ccc12	–	inconclusive: 63.1 µM [inhibitor, partial curve, poor fit]
COc1cc(/C=C/C(=O)CC(=O)/C=C/c2ccc(O)c(OC)c2)ccc1O	–	inconclusive: 89.1 µM [inhibitor, single point] and inconclusive: 35.5 µM [inhibitor, partial curve]
O=C(CSc1nc(NS(=O)(=O)c2ccccc2)cc(=O)[nH]1)Nc1ccc(F)cc1	–	active: 17.8 µM
Cc1ccccc1C1=C/C(=C(\SS/C(C(=O)c2ccc(OCC(=O)O)c(Cl)c2Cl)=C2\C=C(c3ccccc3C)SS2)C(=O)c2ccc(OCC(=O)O)c(Cl)c2Cl)SS1	–	inconclusive: 28.2 µM [inhibitor, single point]
CCOC(=O)c1cccc(NC(=O)C(C)n2nc(C)c3c(C)n(-c4ccccc4)nc3c2=O)c1 (stereo unspecified)	inactive: 28.7%	–
COc1ccc(NC(=O)CCN2CCCCCC2)cc1	–	inconclusive: 31.6 µM [inhibitor, single point]
COc1ccccc1CNC(=O)CC(c1ccc(F)cc1)N1Cc2ccccc2C1=O (stereo unspecified)	–	inconclusive: 89.1 µM [inhibitor, single point]
CCOC(=O)c1c(-c2cccc([N+](=O)[O-])c2)csc1NC(=O)C1CCCCC1	–	inconclusive: 3.98 µM [inhibitor, partial curve]
Cc1cccc(N2CCN(S(=O)(=O)c3ccc(-c4cnc(C5CC5)o4)cc3)CC2)c1C	–	inconclusive: 79.4 µM [inhibitor, partial curve]
CN(C)CC(C)(C)CNS(=O)(=O)c1ccc(Cl)c(Cl)c1	–	inconclusive: 100 µM [inhibitor, single point]
CCOc1ccc(-n2c(=O)c3c(C)c(C)sc3n(CC(=O)C(C)(C)C)c2=O)cc1	inactive: 1.74%	–
COc1ccccc1OCC(=O)N(Cc1ccco1)Cc1ccccc1F	inactive: 0.946%	–
C=CCOC(=O)c1[nH]c2c(c1C)C(=O)CC(c1ccco1)C2 (stereo unspecified)	–	inconclusive: 39.8 µM [inhibitor, partial curve, poor fit]
CCNc1ccc(Br)cc(C(=O)/C=C/c2ccc(Cl)cc2)c1=O	–	inconclusive: 10 µM [inhibitor, full curve, poor fit]
Cc1cc(C)cc(NC(=O)CCc2c(C)nc3nc(CNC(=O)c4cccc(F)c4)nn3c2C)c1	inactive: -3.23%	–
CCCCC(=O)Nc1nnc(S(=O)(=O)N(C)Cc2ccc(Cl)cc2)s1	inactive: 47.5%	–

Structure (SMILES)	activity, negative = inhibition	Potency
CCN(CC)C(=O)CC(c1ccc(OC)cc1)c1c(O)cc(OC)cc1OC (stereo unspecified)	–	inconclusive: 4.47 µM [inhibitor, full curve, poor fit]
COc1cc(C(=O)NCC(c2ccco2)S(=O)(=O)c2cccs2)cc(OC)c1OC (stereo unspecified)	inactive: 16.2%	–
C=CCNC(=O)c1ccccc1NS(=O)(=O)c1ccc(SC)cc1	–	inconclusive: 0.794 µM [inhibitor, full curve, poor fit]
CCS(=O)(=O)N1CCc2cc(C(=O)Nc3ccc(Br)cc3F)ccc21	–	inconclusive: 100 µM [inhibitor, single point]
CN(C)c1ccc(/C=N/NC(=O)c2cc(=O)[nH]c3ccccc23)cc1	–	inconclusive: 25.1 µM [inhibitor, partial curve, poor fit]
Cc1ccc(S(=O)(=O)N2CC=C(c3c(C)n(CC(=O)N4CCCC4)c4ccccc34)CC2)cc1C	–	active: 79.4 µM
COc1cc(/C=C2/C(=O)N(c3ccc(Br)cc3)N=C2C)cc(OC)c1OC	–	inconclusive: 11.2 µM [inhibitor, partial curve, poor fit]
Cc1ccc(NC(=O)C2CCN(S(=O)(=O)c3cc([N+](=O)[O-])ccc3Cl)CC2)nc1	–	inconclusive: 28.2 µM [inhibitor, partial curve, poor fit]
O=C(Cn1nc(-c2ccccc2)ccc1=O)NCCN1CCN(c2cccc(Cl)c2)CC1	–	inconclusive: 89.1 µM [inhibitor, single point]
CCOc1cccc(C(=O)N(Cc2ccc(C)o2)C2CCS(=O)(=O)C2)c1 (stereo unspecified)	inactive: -20.5%	–
O=c1oc2ccccc2cc1-c1nnc(NCc2ccco2)s1	–	inconclusive: 15.8 µM [inhibitor, full curve, poor fit]
COc1cc(/C=C/C(=O)c2ccc3c(c2)OCO3)cc(OC)c1OC	–	inconclusive: 17.8 µM [inhibitor, full curve, poor fit]
O=C(CCC(=O)N1CCSc2ccccc21)Nc1ccc(Cl)cc1	inactive: -8.92%	–
CC1c2cc3c(cc2CCN1C(=O)c1ccc(Cl)cc1)OCCCO3 (stereo unspecified)	–	inconclusive: 28.2 µM [inhibitor, partial curve, poor fit]
CCOC(=O)c1n[nH]n2c1nc(=S)c1ccccc12	–	inconclusive: 35.5 µM [inhibitor, partial curve, poor fit]
CCN1C(=O)CC(C(=O)NC)SC1=Nc1cc(Cl)c(O)c(Cl)c1 (stereo unspecified)	–	active: 89.1 µM
O=C1C(SCCO)=C(SCCO)C(=O)c2ccccc21	–	active: 3.55 µM and active: 1.12 µM
CC[n+]1c(/C=C/C=C/N(C(C)=O)c2ccccc2)sc2ccccc21	–	inconclusive: 12.6 µM [inhibitor, partial curve]
O=C(O)c1ccc(/C=N/NC(=O)c2cc3c(ccc4ccccc43)o2)cc1	–	inconclusive: 22.4 µM [inhibitor, full curve, poor fit]

Record cards, as listed above. Values in the order: activity, negative = inhibition | Potency
CC(=O)c1cccc(NC(=O)c2nc3ccccc3n(C)c2=O)c1 in the list: inactive: -0.0692% | –
Cc1cccc(-c2noc(-c3ccccc3NC(=O)C3CC(=O)N(c4ccccc4C)C3)n2)c1 (stereo unspecified) in the list: – | inconclusive: 100 µM [inhibitor, single point]
